Assay results as given in the supplement of paper PMC10849652.
This is one part of the list.

Protein sequences, listed by entry. Tags and fused reporters are not part of them. Lines headed by an entry give the natural chain unless they say otherwise; changes in a name come on top.
UniProt Q5XKK7: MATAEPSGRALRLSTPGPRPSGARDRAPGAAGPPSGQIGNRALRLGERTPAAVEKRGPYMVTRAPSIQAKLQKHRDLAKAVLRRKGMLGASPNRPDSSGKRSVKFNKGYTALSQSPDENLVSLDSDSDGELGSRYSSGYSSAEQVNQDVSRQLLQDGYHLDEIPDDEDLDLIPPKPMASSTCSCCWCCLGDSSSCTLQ
UniProt Q9UBQ6: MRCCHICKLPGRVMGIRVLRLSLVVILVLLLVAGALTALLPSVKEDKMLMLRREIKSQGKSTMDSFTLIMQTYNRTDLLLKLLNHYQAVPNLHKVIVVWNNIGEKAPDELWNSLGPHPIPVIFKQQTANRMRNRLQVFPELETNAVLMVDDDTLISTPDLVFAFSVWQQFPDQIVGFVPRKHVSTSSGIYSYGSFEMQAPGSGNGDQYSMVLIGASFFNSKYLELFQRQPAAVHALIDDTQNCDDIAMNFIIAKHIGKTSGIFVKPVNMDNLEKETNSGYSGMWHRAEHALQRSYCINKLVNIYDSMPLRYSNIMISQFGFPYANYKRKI
UniProt Q8N612: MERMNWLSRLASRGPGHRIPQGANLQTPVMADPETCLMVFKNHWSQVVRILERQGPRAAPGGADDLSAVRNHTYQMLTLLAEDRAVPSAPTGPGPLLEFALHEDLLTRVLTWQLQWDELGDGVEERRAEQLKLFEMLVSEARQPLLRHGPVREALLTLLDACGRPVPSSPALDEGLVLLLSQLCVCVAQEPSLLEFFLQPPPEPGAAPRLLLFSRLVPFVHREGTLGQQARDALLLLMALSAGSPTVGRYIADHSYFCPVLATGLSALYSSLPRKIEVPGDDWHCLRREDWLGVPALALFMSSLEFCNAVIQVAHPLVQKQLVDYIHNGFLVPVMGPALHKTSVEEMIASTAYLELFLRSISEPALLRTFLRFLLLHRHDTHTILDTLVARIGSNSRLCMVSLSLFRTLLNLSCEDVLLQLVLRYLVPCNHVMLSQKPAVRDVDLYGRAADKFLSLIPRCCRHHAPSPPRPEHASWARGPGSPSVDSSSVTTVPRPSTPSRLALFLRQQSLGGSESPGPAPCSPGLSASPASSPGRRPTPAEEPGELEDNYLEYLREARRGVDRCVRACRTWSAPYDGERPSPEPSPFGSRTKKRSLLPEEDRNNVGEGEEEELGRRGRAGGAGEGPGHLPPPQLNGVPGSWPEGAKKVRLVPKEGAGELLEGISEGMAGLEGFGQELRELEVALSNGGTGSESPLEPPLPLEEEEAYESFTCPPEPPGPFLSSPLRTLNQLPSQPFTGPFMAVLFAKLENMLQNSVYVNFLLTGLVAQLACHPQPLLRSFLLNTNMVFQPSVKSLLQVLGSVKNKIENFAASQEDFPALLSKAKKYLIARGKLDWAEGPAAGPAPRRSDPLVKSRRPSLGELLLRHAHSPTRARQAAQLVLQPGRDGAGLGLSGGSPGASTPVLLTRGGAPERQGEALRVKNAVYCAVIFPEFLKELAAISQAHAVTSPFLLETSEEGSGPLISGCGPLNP
UniProt Q6P587: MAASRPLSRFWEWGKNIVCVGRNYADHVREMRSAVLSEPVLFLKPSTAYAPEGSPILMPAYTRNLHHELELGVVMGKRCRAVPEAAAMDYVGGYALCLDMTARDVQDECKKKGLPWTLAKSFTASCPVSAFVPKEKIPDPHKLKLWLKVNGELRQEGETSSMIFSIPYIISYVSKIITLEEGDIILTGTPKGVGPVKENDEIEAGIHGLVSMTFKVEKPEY
UniProt Q14153: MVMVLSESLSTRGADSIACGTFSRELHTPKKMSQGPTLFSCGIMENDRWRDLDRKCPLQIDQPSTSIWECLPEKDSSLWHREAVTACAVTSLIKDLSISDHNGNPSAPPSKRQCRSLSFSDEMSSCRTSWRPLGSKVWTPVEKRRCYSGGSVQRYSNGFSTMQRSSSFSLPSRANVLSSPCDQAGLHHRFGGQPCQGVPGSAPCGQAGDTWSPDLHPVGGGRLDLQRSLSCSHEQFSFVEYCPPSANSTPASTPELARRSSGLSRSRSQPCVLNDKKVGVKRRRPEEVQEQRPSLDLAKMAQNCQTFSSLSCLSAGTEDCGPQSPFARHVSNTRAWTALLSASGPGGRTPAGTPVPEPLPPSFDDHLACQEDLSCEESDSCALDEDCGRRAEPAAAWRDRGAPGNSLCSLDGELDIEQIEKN
UniProt Q8IW50: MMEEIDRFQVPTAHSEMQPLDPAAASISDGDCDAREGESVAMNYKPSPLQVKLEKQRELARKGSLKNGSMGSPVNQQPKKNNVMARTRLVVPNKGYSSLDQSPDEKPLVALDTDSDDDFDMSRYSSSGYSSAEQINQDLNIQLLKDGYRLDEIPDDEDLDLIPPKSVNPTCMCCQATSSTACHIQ
UniProt Q8WU58: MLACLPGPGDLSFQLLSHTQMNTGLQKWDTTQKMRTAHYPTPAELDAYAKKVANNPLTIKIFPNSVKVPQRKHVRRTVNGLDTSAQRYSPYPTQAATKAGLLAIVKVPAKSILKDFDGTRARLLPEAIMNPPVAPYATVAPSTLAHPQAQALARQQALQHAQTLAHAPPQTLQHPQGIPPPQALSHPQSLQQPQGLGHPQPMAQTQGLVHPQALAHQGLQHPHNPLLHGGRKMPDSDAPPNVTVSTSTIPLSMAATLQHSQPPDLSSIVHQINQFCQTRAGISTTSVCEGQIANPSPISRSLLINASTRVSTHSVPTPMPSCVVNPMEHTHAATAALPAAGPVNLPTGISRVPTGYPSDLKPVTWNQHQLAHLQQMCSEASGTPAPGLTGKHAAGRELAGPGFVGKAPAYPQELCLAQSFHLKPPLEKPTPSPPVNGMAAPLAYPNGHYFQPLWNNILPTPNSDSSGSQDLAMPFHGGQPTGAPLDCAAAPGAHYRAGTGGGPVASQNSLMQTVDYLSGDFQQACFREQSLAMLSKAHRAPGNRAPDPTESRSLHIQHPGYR
UniProt Q8IXS8: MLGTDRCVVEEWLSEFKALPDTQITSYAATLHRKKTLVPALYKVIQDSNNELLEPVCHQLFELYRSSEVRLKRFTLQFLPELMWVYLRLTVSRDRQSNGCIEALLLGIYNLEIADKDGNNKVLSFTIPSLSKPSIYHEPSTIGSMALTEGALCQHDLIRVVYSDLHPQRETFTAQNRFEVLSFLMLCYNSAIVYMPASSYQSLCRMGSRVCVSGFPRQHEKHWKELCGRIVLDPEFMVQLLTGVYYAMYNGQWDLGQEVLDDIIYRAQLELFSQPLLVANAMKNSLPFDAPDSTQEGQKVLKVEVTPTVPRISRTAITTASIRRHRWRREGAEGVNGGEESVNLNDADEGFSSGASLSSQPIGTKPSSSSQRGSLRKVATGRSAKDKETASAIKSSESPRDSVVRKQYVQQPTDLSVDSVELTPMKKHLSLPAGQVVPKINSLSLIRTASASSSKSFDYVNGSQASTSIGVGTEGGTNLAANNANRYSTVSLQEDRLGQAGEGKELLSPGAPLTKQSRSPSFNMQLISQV
UniProt Q9NYF3: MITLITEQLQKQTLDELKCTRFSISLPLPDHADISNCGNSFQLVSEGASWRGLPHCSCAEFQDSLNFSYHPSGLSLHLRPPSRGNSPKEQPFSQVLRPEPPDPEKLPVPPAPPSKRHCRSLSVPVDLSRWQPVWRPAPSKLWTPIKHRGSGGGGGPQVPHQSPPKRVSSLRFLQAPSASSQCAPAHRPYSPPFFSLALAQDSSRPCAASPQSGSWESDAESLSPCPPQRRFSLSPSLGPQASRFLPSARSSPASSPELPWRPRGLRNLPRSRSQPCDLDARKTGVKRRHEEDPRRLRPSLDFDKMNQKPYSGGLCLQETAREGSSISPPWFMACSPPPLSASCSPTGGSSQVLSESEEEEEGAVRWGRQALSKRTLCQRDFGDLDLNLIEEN
UniProt Q9BQ89: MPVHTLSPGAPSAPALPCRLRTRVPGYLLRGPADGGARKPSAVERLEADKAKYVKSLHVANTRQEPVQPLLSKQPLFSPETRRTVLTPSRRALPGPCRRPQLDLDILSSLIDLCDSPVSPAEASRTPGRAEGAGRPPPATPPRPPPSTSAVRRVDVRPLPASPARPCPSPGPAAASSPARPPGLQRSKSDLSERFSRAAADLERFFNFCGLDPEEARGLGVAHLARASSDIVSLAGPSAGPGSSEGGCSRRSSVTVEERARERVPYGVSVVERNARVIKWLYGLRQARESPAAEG
UniProt Q969W3: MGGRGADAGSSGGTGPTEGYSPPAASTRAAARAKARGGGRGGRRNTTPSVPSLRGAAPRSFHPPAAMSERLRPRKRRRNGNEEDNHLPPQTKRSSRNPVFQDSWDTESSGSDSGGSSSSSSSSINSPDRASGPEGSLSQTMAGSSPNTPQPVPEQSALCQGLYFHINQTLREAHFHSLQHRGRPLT
UniProt Q8N0U4: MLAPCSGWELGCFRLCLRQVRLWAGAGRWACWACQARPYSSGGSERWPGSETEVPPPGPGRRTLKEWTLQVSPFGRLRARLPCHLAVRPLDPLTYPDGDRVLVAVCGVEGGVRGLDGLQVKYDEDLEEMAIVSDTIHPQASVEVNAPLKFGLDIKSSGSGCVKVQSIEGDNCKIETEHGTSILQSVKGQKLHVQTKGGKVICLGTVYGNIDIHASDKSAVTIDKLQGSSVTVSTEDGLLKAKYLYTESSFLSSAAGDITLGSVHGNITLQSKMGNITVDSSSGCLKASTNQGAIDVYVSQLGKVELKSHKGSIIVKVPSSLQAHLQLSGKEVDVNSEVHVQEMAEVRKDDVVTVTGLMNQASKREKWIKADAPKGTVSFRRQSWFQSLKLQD
UniProt Q9H790: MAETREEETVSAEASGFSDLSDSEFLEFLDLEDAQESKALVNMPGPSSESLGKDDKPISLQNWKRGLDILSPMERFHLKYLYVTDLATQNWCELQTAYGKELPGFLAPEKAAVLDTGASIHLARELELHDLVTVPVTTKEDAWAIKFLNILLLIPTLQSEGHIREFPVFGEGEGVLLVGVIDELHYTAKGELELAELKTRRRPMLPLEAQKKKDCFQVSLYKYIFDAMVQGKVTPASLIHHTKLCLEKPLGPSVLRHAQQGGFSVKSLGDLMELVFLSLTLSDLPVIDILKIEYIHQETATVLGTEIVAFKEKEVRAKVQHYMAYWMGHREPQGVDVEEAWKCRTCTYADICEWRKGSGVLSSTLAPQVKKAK
UniProt Q13158: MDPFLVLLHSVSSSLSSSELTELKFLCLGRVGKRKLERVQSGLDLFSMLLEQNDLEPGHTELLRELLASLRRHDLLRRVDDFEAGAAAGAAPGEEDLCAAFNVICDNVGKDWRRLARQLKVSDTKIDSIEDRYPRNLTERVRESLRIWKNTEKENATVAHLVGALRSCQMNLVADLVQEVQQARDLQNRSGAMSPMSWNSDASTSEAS
UniProt O95718: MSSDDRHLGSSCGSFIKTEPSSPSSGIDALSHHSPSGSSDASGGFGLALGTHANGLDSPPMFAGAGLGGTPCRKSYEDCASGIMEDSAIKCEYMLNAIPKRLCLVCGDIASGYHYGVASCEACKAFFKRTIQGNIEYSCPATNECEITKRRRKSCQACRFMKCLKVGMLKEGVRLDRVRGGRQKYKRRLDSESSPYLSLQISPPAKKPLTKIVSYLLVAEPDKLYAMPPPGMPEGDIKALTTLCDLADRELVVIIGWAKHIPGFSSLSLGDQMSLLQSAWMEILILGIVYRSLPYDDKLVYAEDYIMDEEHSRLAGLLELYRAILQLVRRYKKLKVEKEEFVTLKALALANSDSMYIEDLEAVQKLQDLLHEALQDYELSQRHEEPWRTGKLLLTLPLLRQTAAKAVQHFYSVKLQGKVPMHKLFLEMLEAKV
UniProt Q9BPY3: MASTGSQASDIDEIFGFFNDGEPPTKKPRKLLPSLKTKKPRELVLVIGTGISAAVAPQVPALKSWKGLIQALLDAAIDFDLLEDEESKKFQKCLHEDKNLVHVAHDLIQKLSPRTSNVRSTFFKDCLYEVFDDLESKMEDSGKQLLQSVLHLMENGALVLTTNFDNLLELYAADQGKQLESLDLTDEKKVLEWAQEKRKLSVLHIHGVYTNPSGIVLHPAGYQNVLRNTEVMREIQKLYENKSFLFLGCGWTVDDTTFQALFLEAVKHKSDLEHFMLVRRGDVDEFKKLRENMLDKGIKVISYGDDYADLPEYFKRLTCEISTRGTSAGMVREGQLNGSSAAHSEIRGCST
UniProt P34910: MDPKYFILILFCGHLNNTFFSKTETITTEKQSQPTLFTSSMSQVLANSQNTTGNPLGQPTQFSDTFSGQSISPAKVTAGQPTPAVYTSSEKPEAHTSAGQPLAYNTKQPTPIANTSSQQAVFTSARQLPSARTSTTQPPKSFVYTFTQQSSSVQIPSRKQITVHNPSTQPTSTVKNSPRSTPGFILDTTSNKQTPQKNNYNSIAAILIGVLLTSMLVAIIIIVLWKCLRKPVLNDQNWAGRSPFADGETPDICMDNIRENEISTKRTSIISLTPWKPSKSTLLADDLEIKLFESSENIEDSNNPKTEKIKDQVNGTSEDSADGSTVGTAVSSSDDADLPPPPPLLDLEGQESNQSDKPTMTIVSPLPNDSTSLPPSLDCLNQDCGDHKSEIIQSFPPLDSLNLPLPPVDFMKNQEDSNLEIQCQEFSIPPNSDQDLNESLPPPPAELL

Tests used:
Experiment in all cases: log2 fold change, soluble protein after heating vs DMSO (PISA); higher = thermal stabilisation; K562 lysate, 10 uM; active = over 0.2 and 3.5 SD of the protein, either way, in both replicates (recomputed)
[1] = compound: C=CC(=O)N1CCC[C@@H](n2nc(-c3ccc(Oc4ccccc4)cc3)c3c(N)ncnc32)C1 [ibrutinib]
Method in brief: (§1)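 Log-two fold change in thermal stability relative to solvent controls is reported from duplicates. For each sample, crude K562 extract from dounce-homogenised pellets in PBS pH 7.4 with 1 mM MgCl2, at 1 mg/mL protein, was treated with 10 μM compound for 30 min. Aliquots heated for 3 min across 48°C-58°C were pooled, brought to 0.5% NP-40 at 4°C and cleared at 21,000xg for 90 min. The supernatant was quantified by TMTpro 16plex LC-MS/MS with channel sums equalised.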

[2] = compound: CC1=C(C=C(C=C1)NC(=O)C2=CC(=CC=C2)C(C)(C)C#N)NC3=CC4=C(C=C3)N=CN(C4=O)C
Method in brief: as §1

[3] = compound: CCN(CCCOc1ccc2c(Nc3cc(CC(=O)Nc4cccc(F)c4)[nH]n3)ncnc2c1)CCOP(=O)(O)O [barasertib]
Method in brief: as §1

[4] = compound: CCn1cc(-c2ccnc3[nH]c(-c4cccc(CN(C)C)c4)cc23)c(-c2ccc(NC(=O)N(C)C)cc2)n1
Method in brief: as §1

[5] = compound: CN1CCC(CNc2ccc3ncc(-c4cccc(OC(F)(F)F)c4)n3n2)CC1
Method in brief: as §1

[6] = compound: CN1CCN(c2nc(C3=C(c4c[nH]c5ccccc45)C(=O)NC3=O)c3ccccc3n2)CC1 [sotrastaurin]
Method in brief: as §1

[7] = compound: CC(=O)c1cnc2ccc(-c3cc(Cl)c(O)c(Cl)c3)nc2c1N[C@H]1CC[C@H](CN(C)C)CC1
Method in brief: as §1

[8] = compound: CC(C)(C)Cn1c(N)nc2ccc(-c3[nH]c(C(C)(C)C)nc3-c3ccc(F)cc3)nc21 [ralimetinib]
Method in brief: as §1

[9] = compound: CC(C)(O)CC(=O)NCCn1ccc2ncnc(Nc3ccc(Oc4cccc(C(F)(F)F)c4)c(Cl)c3)c21
Method in brief: as §1

[10] = compound: CC(C)C1=C2N=C(C=C(N2N=C1)NCC3=CC=CC=C3)NCCCCCCN
Method in brief: as §1

[11] = compound: CC1=C(C(CC(=O)N1)C2=CC=C(C=C2)C(F)(F)F)C(=O)NC3=C(C=C4C(=C3)C=NN4)F
Method in brief: as §1

[12] = compound: CC1=C(C2=C(C=C1)C(=O)C3=CC=CC=C3N2CCCN)C
Method in brief: as §1

[13] = compound: CC1=C(C=C(C=C1)NC(=O)C2=CC(=CC=C2)N(C)C)NC(=O)C3=CC=C(C=C3)O
Method in brief: as §1

[14] = compound: CC1=CC=C(C=C1)SC2=C3C=C(SC3=CN=C2)C(=O)N
Method in brief: as §1

[15] = compound: CCCS(=O)(=O)Nc1ccc(F)c(C(=O)c2c[nH]c3ncc(-c4ccc(Cl)cc4)cc23)c1F [vemurafenib]
Method in brief: as §1

[16] = compound: CCCS(=O)(=O)Nc1ccc(F)c(C(=O)c2c[nH]c3ncc(Cl)cc23)c1F
Method in brief: as §1

[17] = compound: CC[C@@H]1C(=O)N(C)c2cnc(Nc3ccc(C(=O)NC4CCN(C)CC4)cc3OC)nc2N1C1CCCC1
Method in brief: as §1

[18] = compound: CC[C@@H]1C(=O)N(C)c2cnc(Nc3ccc(C(=O)N[C@H]4CC[C@H](N5CCN(CC6CC6)CC5)CC4)cc3OC)nc2N1C(C)C [volasertib]
Method in brief: as §1

[19] = compound: CCn1c(C(=O)N(C2CC2)C2CC2)cc2c3c(ncn3C)c(Nc3cc(C)n(C)n3)nc21
Method in brief: as §1

[20] = compound: CN1CCN(CCOc2cc(OC3CCOCC3)c3c(Nc4c(Cl)ccc5c4OCO5)ncnc3c2)CC1 [saracatinib]
Method in brief: as §1

Measured: log2 fold change

FAM219B (UniProt Q5XKK7)
inactive: [1] -0.008 | [2] 0.066 | [3] -0.011 | [4] 0.115 | [5] -0.139 | [6] 0.042

FAH (UniProt P16930)
inactive: [1] 0.035 | [7] 0.021 | [8] 0.054 | [9] -0.033 | [10] -0.021 | [11] -0.027 | [12] -0.038 | [2] -0.02 | [13] 0.012 | [14] -0.033 | [15] -0.036 | [16] 0.005 | [3] -0.038 | [17] 0.023 | [18] 0.032 | [19] -0.016 | [4] -0.177 | [5] 0.157 | [20] -0.007 | [6] -0.024

EXTL2 (UniProt Q9UBQ6)
inactive: [1] 0.217 | [7] -0.056 | [8] -0.015 | [9] 0 | [10] -0.077 | [11] 0.021 | [12] -0.146 | [2] 0.014 | [13] -0.04 | [14] -0.071 | [15] -0.052 | [16] 0.066 | [3] 0.057 | [17] -0.13 | [18] 0.019 | [19] 0.03 | [4] -0.198 | [5] 0.078 | [20] -0.017 | [6] -0.026

EWSR1 (UniProt H7BY36)
inactive: [1] -0.288 | [8] -0.073 | [9] -0.052 | [12] -0.126 | [2] 0.071 | [13] 0.39 | [15] -0.035 | [3] -0.055 | [17] 0.095 | [19] -0.046 | [4] -0.056 | [5] -0.043 | [20] 0.024 | [6] -0.02

FAM160A2 isoform 2 (UniProt Q8N612)
inactive: [1] 0.075 | [10] -0.154 | [11] 0.137 | [12] -0.055 | [2] -0.006 | [15] 0.076 | [3] 0.067 | [17] -0.03 | [4] 0.024 | [5] 0.038 | [20] 0.012 | [6] 0.108

FAM193A, A0A1B0GVL4
inactive: [1] 0.157 | [7] 0.086 | [10] 0.146 | [11] 0.063 | [2] 0.05 | [14] 0.06 | [15] 0.05 | [16] -0.06 | [3] 0.146 | [17] 0.393 | [18] -0.009 | [4] -0.117 | [5] 0.172 | [6] -0.003

FAHD1 (UniProt Q6P587)
inactive: [1] 0.056 | [7] 0 | [8] -0.111 | [9] -0.154 | [10] -0.036 | [11] -0.011 | [12] -0.095 | [2] 0.067 | [13] -0.093 | [14] -0.006 | [15] 0.171 | [16] 0.024 | [3] 0.01 | [17] 0.233 | [18] -0.033 | [19] -0.132 | [4] -0.211 | [5] 0.254 | [20] 0.019 | [6] 0.028

FAM53B (UniProt Q14153)
inactive: [1] 0.037 | [8] -0.299 | [9] -0.084 | [10] 0.037 | [11] 0.098 | [12] 0.161 | [2] -0.07 | [13] -0.263 | [15] 0.046 | [3] 0.009 | [17] 0.071 | [19] 0.059 | [4] -0.096 | [5] 0.13 | [20] 0.096 | [6] -0.149

FAM219A (UniProt Q8IW50)
inactive: [1] 0.126 | [7] -0.063 | [8] 0.01 | [9] -0.091 | [10] -0.221 | [12] -0.072 | [2] -0.036 | [13] 0.059 | [14] -0.093 | [16] -0.005 | [3] 0.025 | [17] 0.092 | [18] 0.009 | [19] -0.173 | [4] -0.185 | [5] 0.014 | [20] -0.045 | [6] -0.16

F2 (UniProt P00734)
inactive: [1] 0.078 | [7] 0.009 | [8] -0.049 | [9] 0.106 | [13] -0.234 | [14] -0.079 | [16] 0.153 | [3] -0.119 | [17] 0.029 | [18] 0.125 | [19] 0.031

Random excerpt: 2 entries already listed.
F2 (UniProt P00734)
inactive: [1] 0.078 | [7] 0.009 | [8] -0.049 | [9] 0.106 | [13] -0.234 | [14] -0.079 | [16] 0.153 | [3] -0.119 | [17] 0.029 | [18] 0.125 | [19] 0.031

FAM53B (UniProt Q14153)
inactive: [1] 0.037 | [8] -0.299 | [9] -0.084 | [10] 0.037 | [11] 0.098 | [12] 0.161 | [2] -0.07 | [13] -0.263 | [15] 0.046 | [3] 0.009 | [17] 0.071 | [19] 0.059 | [4] -0.096 | [5] 0.13 | [20] 0.096 | [6] -0.149

The list goes on.

FAM222B (UniProt Q8WU58)
inactive: [1] -0.002 | [8] -0.004 | [9] -0.021 | [10] 0.018 | [11] 0.044 | [12] -0.007 | [2] -0.014 | [13] -0.031 | [15] -0.027 | [3] 0.362 | [17] 0.036 | [19] 0.107 | [20] 0.04 | [6] -0.036

FAM126B (UniProt Q8IXS8)
inactive: [1] -0.067 | [7] 0.043 | [8] 0.11 | [9] -0.034 | [10] 0.126 | [12] -0.074 | [13] -0.089 | [14] -0.076 | [15] 0.064 | [16] 0.027 | [3] -0.129 | [17] 0.017 | [18] -0.027 | [19] -0.26 | [4] -0.135 | [5] 0.187 | [20] 0.038

FAM53C (UniProt Q9NYF3)
inactive: [1] 0.016 | [7] -0.074 | [8] 0.004 | [9] 0.004 | [10] 0.004 | [11] 0.181 | [12] -0.022 | [2] -0.044 | [13] -0.012 | [14] 0.052 | [16] 0.043 | [3] -0.064 | [17] 0.087 | [18] -0.121 | [19] 0.054 | [4] -0.122 | [5] -0.144 | [20] 0.104 | [6] 0.046

FAM110A (UniProt Q9BQ89)
inactive: [1] 0.118 | [7] -0.014 | [10] 0.222 | [2] 0.178 | [14] 0.077 | [16] -0.011 | [3] -0.061 | [18] -0.07 | [4] -0.117 | [5] 0.058 | [6] 0.259

FAM104A isoform 2 (UniProt Q969W3)
inactive: [1] 0 | [8] -0.029 | [9] 0.133 | [12] -0.231 | [13] -0.044 | [3] 0.063 | [19] 0.443 | [20] 0.371

FAM102B (UniProt Q5T8I3)
inactive: [1] -0.024 | [7] -0.027 | [10] -0.187 | [2] 0.048 | [14] 0.06 | [15] -0.002 | [16] 0.014 | [3] 0.093 | [17] 0.007 | [18] -0.022 | [4] 0.003 | [5] 0.013 | [6] 0.002

FAM185A (UniProt Q8N0U4)
inactive: [1] 0.016 | [7] 0.02 | [8] 0.018 | [9] -0.083 | [10] -0.129 | [12] -0.069 | [2] 0.047 | [13] -0.052 | [14] 0.044 | [15] 0.344 | [16] -0.075 | [3] -0.033 | [18] -0.068 | [19] -0.12 | [4] 0.045 | [5] 0.07 | [20] -0.017 | [6] -0.035

EXO5 (UniProt Q9H790)
inactive: [1] 0.111 | [8] 0.018 | [9] -0.126 | [10] -0.025 | [2] 0.217 | [13] -0.067 | [3] 0.111 | [19] -0.022 | [6] 0.128

FADD (UniProt Q13158)
inactive: [1] -0.01 | [7] 0.01 | [8] 0.032 | [9] 0.021 | [10] 0.044 | [11] 0.073 | [12] 0.007 | [2] 0.009 | [13] 0.006 | [14] 0.007 | [15] -0.019 | [16] -0.004 | [3] 0.039 | [17] -0.078 | [18] 0.028 | [19] 0.056 | [4] -0.006 | [5] 0.011 | [20] 0.004 | [6] -0.016

ESRRB isoform 1 (UniProt O95718)
inactive: [1] -0.047 | [8] 0.035 | [9] -0.087 | [10] -0.187 | [13] 0.053 | [3] -0.004 | [19] -0.118 | [4] 0.242 | [5] -0.127

FAM118B (UniProt Q9BPY3)
inactive: [1] 0.066 | [7] -0.016 | [8] 0.015 | [9] -0.019 | [10] 0.023 | [11] -0.01 | [12] 0.012 | [2] -0.012 | [13] 0.03 | [14] 0.008 | [15] -0.06 | [16] 0.03 | [3] 0.004 | [17] -0.014 | [18] 0.001 | [19] 0.022 | [4] -0.03 | [5] -0.027 | [20] 0.004 | [6] 0.048

EVI2B isoform 2 (UniProt P34910)
inactive: [4] 0.045 | [5] 0.038
